The text below walks through data of publication PMC9363500 (Communications Biology, 2022).

Sequences of proteins named here, by UniProt entry; tags and fusion partners are left off. Residues count along the entry.
UniProt Q05397, residues 804-832: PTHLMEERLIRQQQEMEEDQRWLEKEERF

These are yes or no findings as the source states them, for the method shown.

Experiment [1] addresses 6×His–PYK2 KFL_(761–839) (human) (UniProt Q14289). The experiment in a line: MST; labelled 6×His protein at 50 nM, unlabelled protein serially diluted; 20 mM HEPES, 200 mM NaCl, 1 mM DTT, pH 6.5; dimer to monomers; both purified.
For experiment [2], the target named is 6×His–FAK KFL_(804–832) (human) (UniProt Q05397). The experiment is described as above.

Turning to “6×His–PYK2 KFL_(761–839) (from UniProt Q14289 761-839) (domain or fragment)”, the binding result in experiment [1] is “no binding”.
Consider “6×His–FAK KFL_(804–832) (from UniProt Q05397 804-832) (domain or fragment)”, for which, in experiment [2], the binding result was “no binding”.
